According to publication PMC3490818:
No constants are given. Whether binding was seen depends on the method and setting. In cells and extracts the contact can be indirect. These calls come from enrichment with a bait or labelling near it, and not all partners need be listed.

Molecular target: T1, Signal peptide peptidase (human (endogenous in HEK293)) (UniProt Q8TCT9)
T1 sequence: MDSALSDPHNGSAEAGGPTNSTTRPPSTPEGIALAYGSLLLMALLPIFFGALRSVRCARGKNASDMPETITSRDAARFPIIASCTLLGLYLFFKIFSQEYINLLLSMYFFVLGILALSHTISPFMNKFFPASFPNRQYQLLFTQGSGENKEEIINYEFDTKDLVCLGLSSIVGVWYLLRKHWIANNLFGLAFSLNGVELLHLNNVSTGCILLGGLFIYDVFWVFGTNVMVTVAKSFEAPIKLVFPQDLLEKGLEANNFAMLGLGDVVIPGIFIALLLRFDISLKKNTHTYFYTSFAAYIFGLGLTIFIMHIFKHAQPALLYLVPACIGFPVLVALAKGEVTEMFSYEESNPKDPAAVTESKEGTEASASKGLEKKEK
Test: affinity purification with mass spectrometry; anti-SPP-CT antibody cross-linked to Protein G sepharose; HEK293 microsomal membranes solubilized in 0.5% DDM in 25 mM HEPES pH 7.4, 150 mM NaCl, 4 mM EDTA; washes with 0.02% DDM and one wash with 300 mM NaCl; elution at pH 3.0; control with antibody pre-saturated with 100 ug/ml cognate peptide; iTRAQ-116 (control) against iTRAQ-117 (specific)

Q: With Vigilin (from UniProt Q00341-1 1-1268) as the substance, how does the binding read?
A: binds
